Test results from US20210361653A1.
Results are given in words; binding and its absence hold for the method and conditions named. Some binding calls cover weakened binding; strength is not graded here.

The chains behind the UniProt entries cited, without tags or fusion partners. Where a name states a change or a piece, a line headed by the entry shows the natural chain unless it says otherwise. Residues count along the entry.
UniProt P25440: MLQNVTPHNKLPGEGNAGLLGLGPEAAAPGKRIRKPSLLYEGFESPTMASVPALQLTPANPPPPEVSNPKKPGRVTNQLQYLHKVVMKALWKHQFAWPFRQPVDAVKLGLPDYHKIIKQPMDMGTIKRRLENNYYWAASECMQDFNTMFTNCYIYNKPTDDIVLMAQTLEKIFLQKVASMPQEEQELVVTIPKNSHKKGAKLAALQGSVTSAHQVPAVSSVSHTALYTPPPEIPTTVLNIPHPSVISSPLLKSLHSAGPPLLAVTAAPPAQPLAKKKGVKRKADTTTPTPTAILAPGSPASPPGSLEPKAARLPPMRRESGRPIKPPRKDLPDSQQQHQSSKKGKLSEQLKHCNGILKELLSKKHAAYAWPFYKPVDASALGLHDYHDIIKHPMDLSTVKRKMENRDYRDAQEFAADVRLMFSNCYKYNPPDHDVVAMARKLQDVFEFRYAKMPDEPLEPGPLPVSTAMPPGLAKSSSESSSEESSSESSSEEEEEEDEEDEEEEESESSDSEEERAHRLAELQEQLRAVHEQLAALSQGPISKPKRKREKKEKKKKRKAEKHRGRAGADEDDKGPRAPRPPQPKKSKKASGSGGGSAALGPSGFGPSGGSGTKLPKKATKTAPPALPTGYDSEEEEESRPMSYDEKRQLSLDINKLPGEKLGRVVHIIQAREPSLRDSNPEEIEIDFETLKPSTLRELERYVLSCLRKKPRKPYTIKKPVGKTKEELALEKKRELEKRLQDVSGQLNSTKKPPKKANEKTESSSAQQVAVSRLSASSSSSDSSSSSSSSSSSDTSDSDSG
UniProt Q9Y6Q9, residues 2-1424: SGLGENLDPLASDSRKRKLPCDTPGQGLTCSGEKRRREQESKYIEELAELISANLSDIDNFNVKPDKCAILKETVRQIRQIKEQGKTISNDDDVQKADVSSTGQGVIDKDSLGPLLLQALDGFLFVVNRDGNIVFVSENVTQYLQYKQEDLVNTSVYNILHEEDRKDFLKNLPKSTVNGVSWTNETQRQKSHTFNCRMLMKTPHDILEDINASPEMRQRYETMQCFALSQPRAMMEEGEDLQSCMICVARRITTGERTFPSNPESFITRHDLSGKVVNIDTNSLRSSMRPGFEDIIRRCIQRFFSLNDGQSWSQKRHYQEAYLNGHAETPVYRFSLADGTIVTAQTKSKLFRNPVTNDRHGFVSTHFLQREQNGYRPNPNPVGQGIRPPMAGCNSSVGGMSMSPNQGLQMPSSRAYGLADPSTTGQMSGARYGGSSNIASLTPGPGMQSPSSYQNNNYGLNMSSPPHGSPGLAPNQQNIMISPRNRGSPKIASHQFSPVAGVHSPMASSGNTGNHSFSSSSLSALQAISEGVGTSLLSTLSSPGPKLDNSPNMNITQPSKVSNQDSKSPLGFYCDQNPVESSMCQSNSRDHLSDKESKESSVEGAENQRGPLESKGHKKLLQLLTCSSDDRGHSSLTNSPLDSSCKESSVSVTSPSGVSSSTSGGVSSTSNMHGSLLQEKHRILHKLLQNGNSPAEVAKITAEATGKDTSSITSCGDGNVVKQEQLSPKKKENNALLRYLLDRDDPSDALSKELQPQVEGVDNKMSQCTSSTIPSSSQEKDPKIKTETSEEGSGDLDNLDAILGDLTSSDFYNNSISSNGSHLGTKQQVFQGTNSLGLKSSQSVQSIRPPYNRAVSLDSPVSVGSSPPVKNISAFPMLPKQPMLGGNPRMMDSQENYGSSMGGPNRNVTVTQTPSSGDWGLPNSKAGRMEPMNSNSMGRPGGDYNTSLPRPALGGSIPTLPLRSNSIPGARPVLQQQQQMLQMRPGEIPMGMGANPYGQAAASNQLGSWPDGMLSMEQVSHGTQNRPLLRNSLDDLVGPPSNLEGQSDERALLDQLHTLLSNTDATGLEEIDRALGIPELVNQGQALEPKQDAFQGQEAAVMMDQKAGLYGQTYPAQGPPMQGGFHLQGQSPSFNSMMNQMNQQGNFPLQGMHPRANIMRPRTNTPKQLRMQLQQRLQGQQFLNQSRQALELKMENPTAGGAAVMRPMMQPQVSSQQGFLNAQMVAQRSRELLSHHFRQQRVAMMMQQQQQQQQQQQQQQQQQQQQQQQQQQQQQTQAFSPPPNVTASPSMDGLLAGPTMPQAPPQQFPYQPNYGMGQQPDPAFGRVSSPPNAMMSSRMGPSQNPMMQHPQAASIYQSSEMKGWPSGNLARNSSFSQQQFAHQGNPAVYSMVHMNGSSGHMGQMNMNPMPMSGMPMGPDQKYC
UniProt P04386: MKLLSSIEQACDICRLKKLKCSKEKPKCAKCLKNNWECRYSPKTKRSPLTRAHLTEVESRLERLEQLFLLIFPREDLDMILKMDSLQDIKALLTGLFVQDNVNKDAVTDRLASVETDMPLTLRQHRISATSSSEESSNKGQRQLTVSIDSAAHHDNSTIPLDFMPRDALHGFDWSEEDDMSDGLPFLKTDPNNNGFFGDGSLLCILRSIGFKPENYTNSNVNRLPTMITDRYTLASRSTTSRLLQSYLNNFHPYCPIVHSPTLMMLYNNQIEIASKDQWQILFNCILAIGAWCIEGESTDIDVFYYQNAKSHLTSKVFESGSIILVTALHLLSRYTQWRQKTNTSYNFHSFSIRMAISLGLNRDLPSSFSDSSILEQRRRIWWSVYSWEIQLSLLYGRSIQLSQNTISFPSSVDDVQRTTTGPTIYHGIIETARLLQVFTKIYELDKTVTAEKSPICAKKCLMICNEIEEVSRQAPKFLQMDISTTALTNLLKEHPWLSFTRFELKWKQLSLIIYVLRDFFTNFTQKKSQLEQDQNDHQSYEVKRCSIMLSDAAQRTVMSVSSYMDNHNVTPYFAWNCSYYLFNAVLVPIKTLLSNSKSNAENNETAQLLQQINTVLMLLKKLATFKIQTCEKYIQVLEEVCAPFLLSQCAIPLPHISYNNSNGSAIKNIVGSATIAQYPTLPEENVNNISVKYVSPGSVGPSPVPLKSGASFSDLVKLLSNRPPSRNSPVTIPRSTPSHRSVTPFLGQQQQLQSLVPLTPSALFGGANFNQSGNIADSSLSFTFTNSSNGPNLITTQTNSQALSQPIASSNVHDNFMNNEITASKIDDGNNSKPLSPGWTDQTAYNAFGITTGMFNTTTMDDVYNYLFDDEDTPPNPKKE

Columns and labels:
[1] = molecular target: BRD2 (yeast two-hybrid positive clone) (human) (UniProt P25440); assay: yeast two-hybrid, full-length SPOP bait, human fetal brain cDNA library
[2] = molecular target: T1, DEK (yeast two-hybrid positive clone) (human) (UniProt P35659); assay: as above
T1 sequence (looked up): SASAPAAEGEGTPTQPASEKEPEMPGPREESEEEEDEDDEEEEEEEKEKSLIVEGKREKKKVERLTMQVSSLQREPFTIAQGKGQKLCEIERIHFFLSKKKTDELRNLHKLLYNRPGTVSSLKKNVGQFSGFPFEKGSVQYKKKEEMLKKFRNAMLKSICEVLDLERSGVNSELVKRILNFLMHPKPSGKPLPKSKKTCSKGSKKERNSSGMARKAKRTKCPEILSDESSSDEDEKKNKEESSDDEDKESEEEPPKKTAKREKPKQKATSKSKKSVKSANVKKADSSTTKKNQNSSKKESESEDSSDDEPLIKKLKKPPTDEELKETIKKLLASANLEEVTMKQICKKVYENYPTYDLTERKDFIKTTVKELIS

[3] = molecular target: NCOA3(SRC-3) (yeast two-hybrid positive clone) (human) (UniProt Q9Y6Q9); assay: as above
[4] = molecular target: BRD2 (yeast two-hybrid positive clone) (human) (UniProt P25440); assay: yeast two-hybrid, full-length SPOP bait
[5] = molecular target: T1, DEK (yeast two-hybrid positive clone) (human); assay: yeast two-hybrid, full-length SPOP bait
[6] = molecular target: NCOA3(SRC-3) (yeast two-hybrid positive clone) (human) (UniProt Q9Y6Q9); assay: yeast two-hybrid, full-length SPOP bait

Measured: binding

full-length SPOP cloned in-frame with the GAL4 DNA binding domain in vector PGBKT7 (from UniProt P04386 1-147; O43791 1-374)
binds: [1] | [2] | [3] | [4] | [5] | [6]
